Test results published in PMC12151148.
Results are given in words; binding and its absence hold for the method and conditions named. For part of these data: Binding can be weak; no strength is given.

What was measured:
LGN-TPR (1–409) (mouse) [1] = assay: SEC; as the analytical SEC, three proteins mixed: AGS3 or LGN protein, NuMA fragment and Insc (18–66) at 1:2:2 (10, 20, 20 μM); fractions on SDS–PAGE; both purified
AGS3-TPR (1–405) (mouse) [2] = assay: as above
AGS3-L (−23–405) (mouse) [3] = assay: as above
LGN-TPR (1–409) (mouse) [4] = assay: ITC; 25°C; 50 mM Tris (pH 8.0), 100 mM NaCl, 1 mM EDTA; one protein (0.2 mM) injected into another (0.02 mM); one-site binding model; both purified
AGS3-L (−23–405) (mouse) [5] = assay: ITC; 25°C; 50 mM Tris (pH 8.0), NaCl raised to 300 mM for AGS3-TPR or AGS3-L, 1 mM EDTA; one protein (0.2 mM) injected into another (0.02 mM); one-site binding model; both purified
AGS3-TPR (1–405) (mouse) [6] = assay: ITC; titration of Insc (18–66) or NuMA (1886–1912) into a 1:1 mixture of AGS3-TPR with the other partner; both purified
LGN-TPR (1–409) (mouse) [7] = assay: SEC; AGS3-L, LGN-TPR and NuMA (1847–1914) mixed 1:1:1; fractions on Coomassie-stained SDS–PAGE; both purified
AGS3-L (−23–405) (mouse) [8] = assay: as above
LGN-TPR (1–409) (mouse) [9] = assay: SEC; analytical, Superose 12 10/300 GL; 50 mM Tris–HCl (pH 8.0), 100 mM NaCl, 1 mM 2-mercaptoethanol, 1 mM EDTA; AGS3 or LGN protein 10 μM, NuMA fragment in excess at 20 μM; both purified
LGN (15–350) (mouse) = assay: as above
AGS3-TPR (1–405) (mouse) [10] = assay: as above
AGS3-L (−23–405) (mouse) [11] = assay: as above
AGS3-TPR (1–405) (mouse) [12] = assay: condition: only AGS3-TPR premixed 1:1 with Insc (18–66); ITC; titration of Insc (18–66) or NuMA (1886–1912) into a 1:1 mixture of AGS3-TPR with the other partner; both purified

| Binder | binding (LGN-TPR (1–409) (mouse) [1]) | binding (AGS3-TPR (1–405) (mouse) [2]) | binding (AGS3-L (−23–405) (mouse) [3]) | binding (LGN-TPR (1–409) (mouse) [4]) | binding (AGS3-L (−23–405) (mouse) [5]) | binding (AGS3-TPR (1–405) (mouse) [6]) | binding (LGN-TPR (1–409) (mouse) [7]) | binding (AGS3-L (−23–405) (mouse) [8]) | binding (LGN-TPR (1–409) (mouse) [9]) | binding (LGN (15–350) (mouse)) | binding (AGS3-TPR (1–405) (mouse) [10]) | binding (AGS3-L (−23–405) (mouse) [11]) | binding (AGS3-TPR (1–405) (mouse) [12]) |
| --- | --- | --- | --- | --- | --- | --- | --- | --- | --- | --- | --- | --- | --- |
| WGLWGAQESRRLCCVGPDRCGQALLQIGINMMALPGGRHLDSVPLQEQR (domain or fragment, UniProt Q3HNM7 18-66) [Insc (18–66)] | binds | binds | binds | binds | binds | binds |  |  |  |  |  |  |  |
| NuMA (1847–1914) (domain or fragment, UniProt Q14980-2 1847-1914) GSPDYGNSALLSLPGYRPTTRSSARRSQAGVSSGAPPGRNSFYMGTCQDEPEQLDDWNRIAELQQRNR | binds |  | binds |  |  |  | binds | binds | binds | binds | binds | binds |  |

Second part, the binder after the results:

| binding (LGN-TPR (1–409) (mouse) [1]) | binding (AGS3-TPR (1–405) (mouse) [2]) | binding (AGS3-L (−23–405) (mouse) [3]) | binding (LGN-TPR (1–409) (mouse) [4]) | binding (AGS3-L (−23–405) (mouse) [5]) | binding (AGS3-TPR (1–405) (mouse) [6]) | binding (LGN-TPR (1–409) (mouse) [7]) | binding (AGS3-L (−23–405) (mouse) [8]) | binding (LGN-TPR (1–409) (mouse) [9]) | binding (LGN (15–350) (mouse)) | binding (AGS3-TPR (1–405) (mouse) [10]) | binding (AGS3-L (−23–405) (mouse) [11]) | binding (AGS3-TPR (1–405) (mouse) [12]) | Binder |
| --- | --- | --- | --- | --- | --- | --- | --- | --- | --- | --- | --- | --- | --- |
| binds |  | binds |  |  |  |  |  | binds |  |  | binds |  | NuMA-CC (1578–1690–7(TGS)–1807–1987) (domain or fragment, UniProt Q14980-2 1578-1690; Q14980-2 1807-1987) QLNELQAQLSQKEQAAEHYKLQMEKAKTHYDAKKQQNQELQEQLRSLEQLQKENKELRAEAERLGHELQQAGLKTKEAEQTCRHLTAQVRSLEAQVAHADQQLRDLGKFQVATTGSTGSTGSTGSTGSTGSTGSKKLDVEEPDSANSSFYSTRSAPASQASLRATSSTQSLARLGSPDYGNSALLSLPGYRPTTRSSARRSQAGVSSGAPPGRNSFYMGTCQDEPEQLDDWNRIAELQQRNRVCPPHLKTCYPLESRPSLSLGTITDEEMKTGDPQETLRRASMQPIQIAEGTGITTRQQRKRVSLEPHQGPGTP |
| binds | binds |  | binds | binds |  |  |  | binds |  |  |  | no binding | NSFYMGTCQDEPEQLDDWNRIAELQQR (domain or fragment, UniProt Q14980-2 1886-1912) [NuMA (1886–1912)] |
